{"source": "the supplement of paper PMC8728848", "assay_in_all_cases": "glycan array binding signal (z-score within array); higher = stronger binding", "settings_in_all_cases": "glycan notation: IUPAC condensed, linker removed", "key": {"[1]": {"target": "Gal(b1-3)GalNAc(b1-3)Gal(a1-4)Gal(b1-4)Glc", "outline": "(§1)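 The binding signal is a Z-score computed within each array and averaged over linkers. Arrays of the same protein sequence at different concentrations or buffers were also averaged together. Data originate from 3228 arrays in the Consortium for Functional Glycomics database, kept only where the protein sequence was available.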"}, "[2]": {"target": "Gal(b1-3)GalNAc(b1-4)Gal(b1-4)Glc", "outline": "as §1"}, "[3]": {"target": "Gal(b1-3)GalNAc(b1-4)[Neu5Ac(a2-3)]Gal(b1-4)Glc", "outline": "as §1"}, "Gal(b1-3)GlcNAc": {"target": "Gal(b1-3)GlcNAc", "outline": "as §1"}, "[4]": {"target": "Gal(b1-3)GlcNAc(a1-3)Gal(b1-4)GlcNAc", "outline": "as §1"}, "[5]": {"target": "Gal(b1-3)GlcNAc(a1-6)Gal(b1-4)GlcNAc", "outline": "as §1"}, "Gal(b1-3)GlcNAc(b1-2)Man": {"target": "Gal(b1-3)GlcNAc(b1-2)Man", "outline": "as §1"}, "[6]": {"target": "Gal(b1-3)GlcNAc(b1-2)Man(a1-3)[Gal(b1-3)GlcNAc(b1-2)Man(a1-6)]Man(b1-4)GlcNAc(b1-4)GlcNAc", "outline": "as §1"}, "[7]": {"target": "Gal(b1-3)GlcNAc(b1-2)Man(a1-3)[Gal(b1-3)GlcNAc(b1-2)Man(a1-6)]Man(b1-4)GlcNAc(b1-4)[Fuc(a1-6)]GlcNAc", "outline": "as §1"}, "[8]": {"target": "Gal(b1-3)GlcNAc(b1-2)Man(a1-3)[GlcNAc(b1-4)][Gal(b1-3)GlcNAc(b1-2)Man(a1-6)]Man(b1-4)GlcNAc(b1-4)GlcNAc", "outline": "as §1"}, "[9]": {"target": "Gal(b1-3)GlcNAc(b1-2)[Gal(b1-3)GlcNAc(b1-6)]Man(a1-6)[Gal(b1-3)GlcNAc(b1-2)Man(a1-3)]Man(b1-4)GlcNAc(b1-4)GlcNAc", "outline": "as §1"}, "[10]": {"target": "Gal(b1-3)GlcNAc(b1-3)Gal(b1-3)GlcNAc", "outline": "as §1"}, "[11]": {"target": "Gal(b1-3)GlcNAc(b1-3)Gal(b1-4)Glc", "outline": "as §1"}, "[12]": {"target": "Gal(b1-3)GlcNAc(b1-3)Gal(b1-4)GlcNAc", "outline": "as §1"}, "[13]": {"target": "Gal(b1-3)GlcNAc(b1-3)Gal(b1-4)GlcNAc(b1-2)Man(a1-3)[Gal(b1-3)GlcNAc(b1-3)Gal(b1-4)GlcNAc(b1-2)Man(a1-6)]Man(b1-4)GlcNAc(b1-4)GlcNAc", "outline": "as §1"}, "[14]": {"target": "Gal(b1-3)GlcNAc(b1-3)Gal(b1-4)GlcNAc(b1-2)[Gal(b1-3)GlcNAc(b1-3)Gal(b1-4)GlcNAc(b1-6)]Man(a1-6)[Gal(b1-3)GlcNAc(b1-3)Gal(b1-4)GlcNAc(b1-2)Man(a1-3)]Man(b1-4)GlcNAc(b1-4)[Fuc(a1-6)]GlcNAc", "outline": "as §1"}, "[15]": {"target": "Gal(b1-3)GlcNAc(b1-3)Gal(b1-4)GlcNAc(b1-3)Gal(b1-4)GlcNAc(b1-2)[Gal(b1-3)GlcNAc(b1-3)Gal(b1-4)GlcNAc(b1-3)Gal(b1-4)GlcNAc(b1-6)]Man(a1-6)[Gal(b1-3)GlcNAc(b1-3)Gal(b1-4)GlcNAc(b1-3)Gal(b1-4)GlcNAc(b1-2)Man(a1-3)]Man(b1-4)GlcNAc(b1-4)[Fuc(a1-6)]GlcNAc", "outline": "as §1"}, "[16]": {"target": "Gal(b1-3)GlcNAc(b1-3)Gal(b1-4)GlcNAc(b1-6)[Gal(b1-3)GlcNAc(b1-3)]Gal(b1-4)Glc", "outline": "as §1"}, "[17]": {"target": "Gal(b1-3)GlcNAc(b1-3)Gal(b1-4)[Fuc(a1-3)]GlcNAc", "outline": "as §1"}, "[18]": {"target": "Gal(b1-3)GlcNAc(b1-3)Gal(b1-4)[Fuc(a1-3)]GlcNAc(b1-6)[Gal(b1-3)GlcNAc(b1-3)]Gal(b1-4)Glc", "outline": "as §1"}, "[19]": {"target": "Gal(b1-3)GlcNAc(b1-3)GalNAc", "outline": "as §1"}, "[20]": {"target": "Gal(b1-3)GlcNAc(b1-6)Gal(b1-4)GlcNAc", "outline": "as §1"}, "[21]": {"target": "Gal(b1-3)GlcNAc(b1-6)GalNAc", "outline": "as §1"}, "[22]": {"target": "Gal(b1-3)GlcNAc(b1-6)[Gal(b1-3)]GalNAc", "outline": "as §1"}, "Gal(b1-3)GlcNAc6S": {"target": "Gal(b1-3)GlcNAc6S", "outline": "as §1"}, "[23]": {"target": "Gal(b1-3)[Fuc(a1-4)]GlcNAc", "outline": "as §1"}, "[24]": {"target": "Gal(b1-3)[Fuc(a1-4)]GlcNAc(b1-2)Man", "outline": "as §1"}, "[25]": {"target": "Gal(b1-3)[Fuc(a1-4)]GlcNAc(b1-2)Man(a1-3)[Gal(b1-3)[Fuc(a1-4)]GlcNAc(b1-2)Man(a1-6)]Man(b1-4)GlcNAc(b1-4)[Fuc(a1-6)]GlcNAc", "outline": "as §1"}, "[26]": {"target": "Gal(b1-3)[Fuc(a1-4)]GlcNAc(b1-3)Gal(b1-3)[Fuc(a1-4)]GlcNAc", "outline": "as §1"}, "[27]": {"target": "Gal(b1-3)[Fuc(a1-4)]GlcNAc(b1-3)Gal(b1-4)[Fuc(a1-3)]GlcNAc", "outline": "as §1"}, "[28]": {"target": "Gal(b1-3)[Fuc(a1-4)]GlcNAc(b1-6)GalNAc", "outline": "as §1"}, "[29]": {"target": "Gal(b1-3)[GlcNAc(b1-6)]GalNAc", "outline": "as §1"}, "[30]": {"target": "Gal(b1-3)[Neu5Ac(a2-6)]GalNAc", "outline": "as §1"}, "[31]": {"target": "Gal(b1-3)[Neu5Ac(a2-6)]GlcNAc(b1-4)Gal(b1-4)Glc", "outline": "as §1"}, "[32]": {"target": "Gal(b1-3)[Neu5Ac(b2-6)]GalNAc", "outline": "as §1"}, "Gal(b1-4)Gal": {"target": "Gal(b1-4)Gal", "outline": "as §1"}, "[33]": {"target": "Gal(b1-4)GalNAc(a1-3)[Fuc(a1-2)]Gal(b1-4)GlcNAc", "outline": "as §1"}, "[34]": {"target": "Gal(b1-4)GalNAc(b1-3)[Fuc(a1-2)]Gal(b1-4)GlcNAc", "outline": "as §1"}}, "note": "Some of the results follow.", "data": [{"binder": "PX14375A-pdi-503-28-503 (Parabacteroides distasonis) (protein) PLGSPEAGDISEERQAFLRLTAVYSVMKDFRYTWSMQCFGDVLSNDATYSGSSNDAQTFTLLENYQYQADHTEILNKYRYSYQCINKANLFIRDMEMADDALFSKYDKEQMIGEAKFIRAYTYFELVKTFGGVPCYTGVLDLDHERLGRASVEEIYSVIEQDLNDAVSVLPKKSEVANYESSYAGRITKGAAIAMQTRIYLYEKKYDEVKKAFEKFQNECGGEYSLVAPEDYTWQFSLDGEHCSSSILEVNMYNSSTQSSYNVNNGNRHVLMSMPRNMTIGFGCAQPTQALADAYDAEGDVIRKKTTLLSTEEAIEIETAAKGDVAPVTDDRTGWYNRKLYLAPGQREENRGNNQPTNLRLIRLAEVYLNYAEACYFSGDIANAQKYLNEVRSHVNLAPKNHTGSQLFEDIMNERHLEFGMEGFRFFDVVRVGWGEKVFNGTKKAEFGAKTPFSAGAEVLPIPQTEIDISDGLITN", "values": [{"measurement": "glycan array binding signal (z-score)", "setting": "[1]", "result": -0.901}, {"measurement": "glycan array binding signal (z-score)", "setting": "[2]", "result": -0.745}, {"measurement": "glycan array binding signal (z-score)", "setting": "[3]", "result": 0.273}, {"measurement": "glycan array binding signal (z-score)", "setting": "Gal(b1-3)GlcNAc", "result": -0.179}, {"measurement": "glycan array binding signal (z-score)", "setting": "[4]", "result": 0.207}, {"measurement": "glycan array binding signal (z-score)", "setting": "[5]", "result": 0.019}, {"measurement": "glycan array binding signal (z-score)", "setting": "Gal(b1-3)GlcNAc(b1-2)Man", "result": -0.555}, {"measurement": "glycan array binding signal (z-score)", "setting": "[6]", "result": 0.122}, {"measurement": "glycan array binding signal (z-score)", "setting": "[7]", "result": -0.507}, {"measurement": "glycan array binding signal (z-score)", "setting": "[8]", "result": 0.244}, {"measurement": "glycan array binding signal (z-score)", "setting": "[9]", "result": -0.545}, {"measurement": "glycan array binding signal (z-score)", "setting": "[10]", "result": 0.181}, {"measurement": "glycan array binding signal (z-score)", "setting": "[11]", "result": 10.3}, {"measurement": "glycan array binding signal (z-score)", "setting": "[12]", "result": -0.194}, {"measurement": "glycan array binding signal (z-score)", "setting": "[13]", "result": -0.098}, {"measurement": "glycan array binding signal (z-score)", "setting": "[14]", "result": 0.404}, {"measurement": "glycan array binding signal (z-score)", "setting": "[15]", "result": 1.01}, {"measurement": "glycan array binding signal (z-score)", "setting": "[16]", "result": -0.395}, {"measurement": "glycan array binding signal (z-score)", "setting": "[17]", "result": -0.413}, {"measurement": "glycan array binding signal (z-score)", "setting": "[18]", "result": -0.628}, {"measurement": "glycan array binding signal (z-score)", "setting": "[19]", "result": -0.288}, {"measurement": "glycan array binding signal (z-score)", "setting": "[20]", "result": -0.478}, {"measurement": "glycan array binding signal (z-score)", "setting": "[21]", "result": -0.556}, {"measurement": "glycan array binding signal (z-score)", "setting": "[22]", "result": -0.261}, {"measurement": "glycan array binding signal (z-score)", "setting": "Gal(b1-3)GlcNAc6S", "result": -0.227}, {"measurement": "glycan array binding signal (z-score)", "setting": "[23]", "result": 0.284}, {"measurement": "glycan array binding signal (z-score)", "setting": "[24]", "result": 0.802}, {"measurement": "glycan array binding signal (z-score)", "setting": "[25]", "result": 0.836}, {"measurement": "glycan array binding signal (z-score)", "setting": "[26]", "result": 0.345}, {"measurement": "glycan array binding signal (z-score)", "setting": "[27]", "result": 1.04}, {"measurement": "glycan array binding signal (z-score)", "setting": "[28]", "result": 0.232}, {"measurement": "glycan array binding signal (z-score)", "setting": "[29]", "result": -0.533}, {"measurement": "glycan array binding signal (z-score)", "setting": "[30]", "result": -0.33}, {"measurement": "glycan array binding signal (z-score)", "setting": "[31]", "result": -0.031}, {"measurement": "glycan array binding signal (z-score)", "setting": "[32]", "result": -0.698}, {"measurement": "glycan array binding signal (z-score)", "setting": "Gal(b1-4)Gal", "result": -0.184}, {"measurement": "glycan array binding signal (z-score)", "setting": "[33]", "result": -0.798}, {"measurement": "glycan array binding signal (z-score)", "setting": "[34]", "result": -0.238}]}]}
